# Screening data, single-dose tests

Protein sequences, listed by entry. Tags and fused reporters are not part of them. Residues count along the entry.
UniProt Q8IDJ8, 1-583: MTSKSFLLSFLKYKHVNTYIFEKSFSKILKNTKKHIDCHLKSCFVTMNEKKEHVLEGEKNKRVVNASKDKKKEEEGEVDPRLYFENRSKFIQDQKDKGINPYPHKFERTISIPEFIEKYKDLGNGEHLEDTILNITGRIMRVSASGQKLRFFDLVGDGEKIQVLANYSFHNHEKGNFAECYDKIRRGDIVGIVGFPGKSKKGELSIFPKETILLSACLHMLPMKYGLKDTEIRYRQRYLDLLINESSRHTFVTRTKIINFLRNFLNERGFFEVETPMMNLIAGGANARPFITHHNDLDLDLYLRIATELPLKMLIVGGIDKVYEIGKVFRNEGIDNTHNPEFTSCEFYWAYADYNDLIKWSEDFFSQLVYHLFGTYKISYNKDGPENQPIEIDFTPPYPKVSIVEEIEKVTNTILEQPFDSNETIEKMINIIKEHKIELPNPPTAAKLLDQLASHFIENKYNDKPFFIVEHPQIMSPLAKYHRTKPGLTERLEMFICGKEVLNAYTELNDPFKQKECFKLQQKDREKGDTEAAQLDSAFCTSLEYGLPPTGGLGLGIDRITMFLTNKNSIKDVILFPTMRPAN
UniProt I6X8D2, whole entry: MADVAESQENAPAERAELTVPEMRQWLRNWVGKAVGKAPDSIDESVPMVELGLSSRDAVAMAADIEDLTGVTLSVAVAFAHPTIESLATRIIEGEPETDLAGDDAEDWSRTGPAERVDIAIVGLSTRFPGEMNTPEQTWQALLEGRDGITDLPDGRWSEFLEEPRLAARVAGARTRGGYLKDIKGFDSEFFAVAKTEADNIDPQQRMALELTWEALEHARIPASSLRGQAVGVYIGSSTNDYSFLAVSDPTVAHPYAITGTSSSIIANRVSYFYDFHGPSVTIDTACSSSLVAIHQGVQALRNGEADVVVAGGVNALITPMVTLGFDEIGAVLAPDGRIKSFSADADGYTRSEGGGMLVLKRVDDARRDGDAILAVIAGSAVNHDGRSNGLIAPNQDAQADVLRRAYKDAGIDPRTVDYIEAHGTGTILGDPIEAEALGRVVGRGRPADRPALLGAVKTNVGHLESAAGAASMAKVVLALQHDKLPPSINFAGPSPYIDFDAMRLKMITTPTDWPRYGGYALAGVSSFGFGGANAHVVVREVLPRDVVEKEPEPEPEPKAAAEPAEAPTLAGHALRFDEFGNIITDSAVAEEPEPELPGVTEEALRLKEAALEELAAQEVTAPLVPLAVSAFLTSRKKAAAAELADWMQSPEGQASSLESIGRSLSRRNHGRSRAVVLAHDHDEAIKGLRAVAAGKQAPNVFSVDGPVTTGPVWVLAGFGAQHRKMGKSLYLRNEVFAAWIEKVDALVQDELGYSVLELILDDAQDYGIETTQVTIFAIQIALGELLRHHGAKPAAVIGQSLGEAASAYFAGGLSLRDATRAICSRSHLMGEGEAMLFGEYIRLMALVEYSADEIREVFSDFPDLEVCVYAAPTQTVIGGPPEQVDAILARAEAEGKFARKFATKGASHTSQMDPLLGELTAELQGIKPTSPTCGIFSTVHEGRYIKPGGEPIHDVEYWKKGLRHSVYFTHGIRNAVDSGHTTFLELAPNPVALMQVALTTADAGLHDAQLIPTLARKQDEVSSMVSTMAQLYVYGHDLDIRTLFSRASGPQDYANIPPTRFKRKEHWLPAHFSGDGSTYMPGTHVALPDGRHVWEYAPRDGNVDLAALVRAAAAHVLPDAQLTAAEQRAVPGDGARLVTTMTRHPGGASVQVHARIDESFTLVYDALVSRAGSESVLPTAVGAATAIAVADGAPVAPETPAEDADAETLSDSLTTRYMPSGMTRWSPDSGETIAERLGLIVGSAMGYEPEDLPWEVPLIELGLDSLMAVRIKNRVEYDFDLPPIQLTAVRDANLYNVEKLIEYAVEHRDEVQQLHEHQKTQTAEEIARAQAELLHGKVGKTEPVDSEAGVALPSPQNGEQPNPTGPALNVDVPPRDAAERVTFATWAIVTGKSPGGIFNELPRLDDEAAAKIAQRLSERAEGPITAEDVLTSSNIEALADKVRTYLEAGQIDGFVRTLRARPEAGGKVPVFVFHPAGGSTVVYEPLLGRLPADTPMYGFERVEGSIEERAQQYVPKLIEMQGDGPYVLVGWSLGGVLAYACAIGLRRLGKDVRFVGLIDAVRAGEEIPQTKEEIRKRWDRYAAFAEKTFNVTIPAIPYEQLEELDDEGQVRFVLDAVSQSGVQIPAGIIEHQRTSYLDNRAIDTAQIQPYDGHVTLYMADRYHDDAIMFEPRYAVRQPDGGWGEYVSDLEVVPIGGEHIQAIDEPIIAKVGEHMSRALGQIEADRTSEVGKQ
UniProt P9WFT3, whole entry: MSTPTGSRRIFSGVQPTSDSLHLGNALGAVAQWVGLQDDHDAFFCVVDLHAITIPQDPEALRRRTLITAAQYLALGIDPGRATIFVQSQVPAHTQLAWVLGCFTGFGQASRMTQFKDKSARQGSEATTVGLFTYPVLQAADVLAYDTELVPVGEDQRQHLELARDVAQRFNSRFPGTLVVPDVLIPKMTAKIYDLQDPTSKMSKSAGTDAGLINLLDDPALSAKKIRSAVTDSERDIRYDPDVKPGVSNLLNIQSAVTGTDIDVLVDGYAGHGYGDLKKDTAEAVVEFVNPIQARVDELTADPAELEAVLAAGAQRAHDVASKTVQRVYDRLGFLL
UniProt Q4DA54, 1-478: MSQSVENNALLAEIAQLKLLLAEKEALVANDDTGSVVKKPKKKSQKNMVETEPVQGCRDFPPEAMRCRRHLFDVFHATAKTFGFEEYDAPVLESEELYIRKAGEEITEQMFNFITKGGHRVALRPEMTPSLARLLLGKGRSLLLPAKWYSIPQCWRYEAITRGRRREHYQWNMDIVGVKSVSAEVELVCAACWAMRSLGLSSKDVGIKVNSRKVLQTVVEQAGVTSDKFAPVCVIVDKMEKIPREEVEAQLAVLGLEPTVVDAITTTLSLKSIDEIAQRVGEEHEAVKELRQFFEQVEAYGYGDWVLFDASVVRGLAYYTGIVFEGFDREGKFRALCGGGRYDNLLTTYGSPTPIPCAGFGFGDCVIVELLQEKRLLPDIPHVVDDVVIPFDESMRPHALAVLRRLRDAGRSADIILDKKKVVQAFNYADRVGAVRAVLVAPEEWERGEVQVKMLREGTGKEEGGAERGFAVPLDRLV

A: 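Enzyme assay of the cytosolic lysyl-tRNA synthetase in 384-well plates, read by luminescence. Target: Lysine-tRNA ligase, Plasmodium falciparum 3D7 (UniProt Q8IDJ8). Compounds at 30 µM. Higher reads as stronger inhibition, judged from the few compounds that gave an IC50. About 69,000 compounds were tested under these conditions; 0.071% (about 49) showed 50% or more at least once.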
B: 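Enzyme assay of the thioesterase domain of polyketide synthase 13; the read-out is not stated. Target: Polyketide synthase Pks13, Mycobacterium tuberculosis (UniProt I6X8D2). Concentration: 30 µM. The record gives no direction; the compounds picked for IC50 retests had high values, so higher reads as stronger inhibition. Size under these conditions: about 67,000 compounds, about 300 of them at 50% or above in at least one test.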
C: 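Tryptophan-tRNA ligase, Mycobacterium tuberculosis (UniProt P9WFT3). Enzyme assay of tryptophanyl-tRNA synthetase; the read-out is not stated. Concentration: 10 µM. Direction is not recorded; retested compounds ran higher, which suggests that high means inhibition. Size under these conditions: about 65,000 compounds, about 64 of them at 50% or above in at least one test.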
D: 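Histidine-tRNA ligase, Trypanosoma cruzi CL Brener (UniProt Q4DA54). Enzyme assay of histidyl-tRNA synthetase; the read-out is not stated. Compounds at 30 µM. The record gives no direction; compounds that gave an IC50 in retests scored well above the rest, so higher reads as stronger inhibition. About 69,000 compounds were tested under these conditions; 0.045% (about 31) showed 50% or more at least once.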

The filed quantity is “Percent Effect” (%). How 0% and 100% were set is not recorded. Most values in the screen are low, and negative values occur. The compounds are a random part of those screened. A dash means the value is not listed here; it may have been measured.

| # | SMILES | A | B | C | D |
|---|---|---|---|---|---|
| 1 | `CSCC(=O)N1CCOC(c2nc(C(C)(C)C)n[nH]2)C1` (stereo unspecified) | 9.714 | -10.34 | 1.929 | 0.9901 |
| 2 | `c1cnc(N2CCC3(CCCN(CC4CC4)C3)CC2)nc1` | 3.356 | -1.016 | -2.596 | -4 |
| 3 | `O=C(NCc1ccc(-n2cncn2)nc1)c1cnccn1` | 1.42 | 3.338 | 2.12 | 8.04 |
| 4 | `Cc1ccc(C2CSCCN2C(=O)c2cccs2)o1` (stereo unspecified) | -1.388 | -24.92 | -3.583 | -2.591 |
| 5 | `Cc1ccsc1C(O)CNS(=O)(=O)Cc1ccc(F)cc1` (stereo unspecified) | 3.764 | -16.1 | 1.854 | 1.212 |
| 6 | `CCS(=O)(=O)N1CCN(C(=O)NC(C)C)CC2(CC(=O)N(C)C2)C1` (stereo unspecified) | 2.304 | -9.497 | -4.689 | 1.149 |
| 7 | `CCc1nnc2n1CCN(C(=O)Cc1nc(-c3ccco3)oc1C)C2` | -1.592 | -13.04 | 19.71 | 3.429 |
| 8 | `Cc1nnc(NCc2ccc(F)cc2)o1` | 3.269 | -20.87 | 11.92 | 6.863 |
| 9 | `COc1cc(C(=O)NC(CC(=O)O)c2cccs2)cc(Cl)c1OC` (stereo unspecified) | -2.274 | 0.3588 | 4.971 | -0.3759 |
| 10 | `CNC(=O)CN(C)c1cncc(OCc2ccccc2)n1` | 0.3412 | 3.869 | -2.039 | 4.902 |
| 11 | `CN(Cc1cccc(C(F)(F)F)c1)Cc1nc(-c2cnccn2)no1` | -4.027 | 27.02 | -4.93 | 0.5236 |
| 12 | `COc1ccc(CN(CC2CCCO2)C(=O)CN2CCCCC2=O)cc1` (stereo unspecified) | 3.596 | 10.95 | 1.84 | 12.14 |
| 13 | `Cc1ccc(CNC(CCO)C2CCCCC2)nc1` (stereo unspecified) | -2.212 | -0.3476 | -0.7988 | 0.6061 |
| 14 | `O=C(CCC1CCCO1)NCCc1ccccn1` (stereo unspecified) | 2.328 | -23.78 | 7.353 | 5.263 |
| 15 | `COc1ccc(O)c(C(=O)NCC2CCCN(C3CCOCC3)C2)c1` (stereo unspecified) | 6.518 | -10.88 | 3.778 | 1.739 |
| 16 | `Cn1ccc(C2CCCCN2C(=O)c2cccc(Cn3cccn3)c2)n1` (stereo unspecified) | 5.775 | -3.871 | 6.278 | 4.046 |
| 17 | `NS(=O)(=O)c1cnn(CCC(=O)N(C2CCCCC2)C2CC2)c1` | 4.792 | -25.76 | -4.644 | 6.077 |
| 18 | `Cc1cc(C)n(-c2ccc(C(C)NS(N)(=O)=O)cc2)n1` (stereo unspecified) | 6.521 | -1.459 | 1.332 | 14.29 |
| 19 | `O=C(c1n[nH]c2c1CCN(Cc1nccs1)C2)N1CCOCC1` | 3.247 | -0.7729 | -7.222 | 5.435 |
| 20 | `O=C(COCC(F)(F)C(F)F)N1CCC(c2ncc[nH]2)CC1` | 4.192 | -26.27 | -3.015 | 2.793 |
| 21 | `Cn1ccnc1SCCNC(=O)CC1CCc2ccccc21` (stereo unspecified) | 0.5104 | -26.45 | 6.061 | 7.182 |
| 22 | `CC(C)OCCOCc1cccc(NC(=O)N2CCCC(O)C2)c1` (stereo unspecified) | 4.129 | -11.83 | -2.801 | 12.07 |
| 23 | `COCCN1CC(=O)c2sc(NCc3ccccc3)nc2C1` | -0.1011 | 18.9 | - | 0 |
| 24 | `Cc1noc(C)c1CN1CCOCC12CCN(c1cnccn1)CC2` | 2.937 | -27.92 | - | 7.735 |
| 25 | `Cc1ccc(C(=O)NC2CCN(C(=O)Nc3ccncc3)CC2)o1` | 0.9076 | -3.407 | -2.508 | 2.624 |
| 26 | `COC(=O)c1ccc(OC)c(OC23CCCN(CC2)C3)c1` (stereo unspecified) | -1.762 | -19.78 | 0.712 | 7.921 |
| 27 | `CC(C)S(=O)(=O)NCc1cccnc1Oc1ccc(F)cc1F` | 0.04474 | -2.233 | -1.911 | 5.759 |
| 28 | `O=c1[nH]cc(N2CCCCC2)c(=O)[nH]1` | 1.815 | -128.6 | 4.581 | 6.513 |
| 29 | `Cc1nc(CN2CCOCC3(CCN(c4cnccn4)CC3)C2)cs1` | 2.447 | 6.052 | 2.956 | 3.067 |
| 30 | `Cc1cccc(CO[C@@H]2CC[C@H]3[C@H]2OCCN3Cc2ccoc2)n1` | 3.776 | -2.846 | - | 4.233 |
| 31 | `N#Cc1ccc(N2CCN(c3cnccn3)CC2)cc1C(F)(F)F` | 5.714 | -9.331 | -1.283 | 11.76 |
| 32 | `Cc1nc(NC(=O)c2ccc(-n3ncc(C#N)c3N)cc2)sc1C` | 0.03946 | 40.98 | -7.335 | 8.571 |
| 33 | `CC(C)(C)NC(=O)c1cccc(CN2CCS(=O)(=O)CC2)c1` | 0.5056 | -12.5 | -2.799 | 1.98 |
| 34 | `Cc1nc2c(c(N3CCC(O)(CN4CCCC4)CC3)n1)CCN(C)CC2` | 4.885 | -26.22 | -1.26 | 7.071 |
| 35 | `CCc1cc(N[C@H](C(N)=O)[C@@H](C)CC)n2nccc2n1` | 11.05 | -18.82 | 0.315 | 5.051 |
| 36 | `O=C(NCc1ccc(F)cc1F)C(c1cccnc1)N1CCOCC1` (stereo unspecified) | 5.347 | -33.53 | 0.000009 | 1.064 |
| 37 | `Cc1cc(Cn2c(=O)c3c(C(F)(F)F)cc(C)nc3n2C)on1` | 7.076 | 3.919 | 3.614 | 3.097 |
| 38 | `CCn1cc(CN2CCC(c3ccncc3)CC2)cc1C#N` | 0.09502 | -15.36 | 3.995 | 7.595 |
| 39 | `CS(=O)(=O)NCc1cnc2n1CCN(Cc1ccccn1)CC2` | 0.8854 | 4.041 | -2.252 | -4.386 |
| 40 | `Clc1cccc(OCCCN2CCOC(Cn3cncn3)C2)c1` (stereo unspecified) | 1.57 | 7.021 | -3.549 | 3.152 |
| 41 | `CCCn1cc(-c2ccnc(NC3CCc4ccccc43)n2)c(C)n1` (stereo unspecified) | -1.538 | -7.776 | -1.154 | 12.35 |
| 42 | `O=C1CC(c2ccc3ccccc3n2)c2c(n[nH]c2C2CCC2)N1` (stereo unspecified) | -2.702 | 1.191 | -1.322 | 0 |
| 43 | `CC(OCC1CC1)C(=O)Nc1cccc(C(=O)Nc2ccncc2)c1` (stereo unspecified) | 0.6814 | -7.917 | -0.3564 | 6.087 |
| 44 | `CC(=O)N1[C@H](Cn2cncn2)C[C@@H]2CN(Cc3nccs3)CC[C@@H]21` | -0.4988 | 32.91 | 6.227 | 4.478 |
| 45 | `COc1ccccc1C(=O)N1CCNCC1C(N)=O` (stereo unspecified) | 2.035 | 5.271 | -3.87 | 8.333 |
| 46 | `Cc1ccc(S(=O)(=O)Nc2cnn(C3CCOCC3)c2)cc1C` | 9.99 | -1.572 | 2.641 | 4.523 |
| 47 | `CC(C(=O)N1CCCN(Cc2ccc(C#N)cc2)CC1)n1ccnc1` (stereo unspecified) | -2.389 | -10.95 | -5.031 | 3.422 |
| 48 | `CC(C)Cc1cc(C(=O)N2CCC(Cc3cnn(C)c3)C2)cc(O)n1` (stereo unspecified) | 2.987 | -0.6301 | 7.635 | -1.19 |
| 49 | `Cc1nn(C)cc1C(=O)N1CCCC(c2nccn2CC2CCC2)C1` (stereo unspecified) | 8.955 | 2.703 | 2.039 | 0 |
| 50 | `Cn1ncc2ccc(C3CCCN(Cc4ccsc4)C3)nc21` (stereo unspecified) | -0.8115 | 11.31 | -1.302 | 9.579 |
| 51 | `CCN1CCC(CNCc2cc(OC)ccc2OC)C1` (stereo unspecified) | 4.347 | -7.722 | 0.3752 | 0.5348 |
| 52 | `Cc1ccc(C(=O)Nc2nnc(C(C)C)s2)c(-n2cnnn2)c1C` | 5.011 | -14.81 | 3.301 | 9.901 |
| 53 | `CCn1ccnc1C1CCN(C(=O)C(O)c2ccc(OC)cc2)CC1` (stereo unspecified) | 1.781 | -22.42 | -0.6299 | 0 |
| 54 | `Cn1ncc2c(=O)[nH]c(N3CCCC3c3cccc(Cl)c3)nc21` (stereo unspecified) | 6.164 | 14.28 | -2.16 | 3.448 |
| 55 | `COc1ccc(CCCNCc2c(C)nn(C)c2N(C)C)cc1OC` | -1.334 | -7.993 | -5.932 | 9.012 |
| 56 | `Cc1cccnc1CN1CCN(C(=O)CCn2ccccc2=O)CC1` | 1.096 | 7.58 | -2.716 | 1.571 |
| 57 | `Cn1ccc(C(=O)NCCOc2ccc3c(c2)CCC3)cc1=O` | 2.8 | -32.17 | -5.47 | 4.972 |
| 58 | `CO[C@@H]1CCN(C(=O)Cc2ccc(F)cc2)[C@@H]1Cc1cccnc1` | 2.339 | 3.882 | - | 1.676 |
| 59 | `Cc1cnn(CC(C)NCc2ccc(C#N)cc2)c1` (stereo unspecified) | 4.258 | -13.69 | 1.805 | 7.447 |
| 60 | `O=C(CCc1nc2cc(Br)cnc2[nH]1)NCCCn1ccnc1` | 4.416 | -8.069 | -0.3408 | -1.22 |
| 61 | `N[C@H]1CN(Cc2cnc(N3CCCC3)nc2)C[C@@H]1C1CC1` | 5.846 | -22.87 | -3.43 | 5.028 |
| 62 | `Cc1cccc(CN2CCCC3(CCN(CC(=O)N(C)C)C3=O)C2)n1` (stereo unspecified) | 0.1645 | 2.055 | 1.44 | -1.02 |
| 63 | `Cc1cccnc1NC(=O)C1CCN(C(=O)C(C)C)CC1` | 4.616 | -31.53 | -1.31 | 0.5525 |
| 64 | `COc1ccc(OC)c(-n2cnnc2COC(C)C)c1` | 3.254 | -18.11 | 4.036 | 3.261 |
| 65 | `CN(CCCOc1ccccc1Cl)C(=O)CN1C[C@@H]2CC[C@H](CC1=O)N2` | 5.315 | -15.17 | -0.6803 | 5.357 |
| 66 | `CCS(=O)(=O)N1CCCC2(CCCN2Cc2cccc(Cl)c2)C1` (stereo unspecified) | 2.536 | -127.7 | -1.647 | 3.681 |
| 67 | `Cc1cccnc1CNC[C@H]1Cn2cc(-c3ccccc3)nc2CO1` | 1.589 | -30.66 | -2.352 | 3.261 |

Repeated from the top, 6 entries:

{"smiles": "CSCC(=O)N1CCOC(c2nc(C(C)(C)C)n[nH]2)C1", "stereo": "stereo unspecified", "A": 9.714, "B": -10.34, "C": 1.929, "D": 0.9901}
{"smiles": "c1cnc(N2CCC3(CCCN(CC4CC4)C3)CC2)nc1", "A": 3.356, "B": -1.016, "C": -2.596, "D": -4}
{"smiles": "O=C(NCc1ccc(-n2cncn2)nc1)c1cnccn1", "A": 1.42, "B": 3.338, "C": 2.12, "D": 8.04}
{"smiles": "Cc1ccc(C2CSCCN2C(=O)c2cccs2)o1", "stereo": "stereo unspecified", "A": -1.388, "B": -24.92, "C": -3.583, "D": -2.591}
{"smiles": "Cc1ccsc1C(O)CNS(=O)(=O)Cc1ccc(F)cc1", "stereo": "stereo unspecified", "A": 3.764, "B": -16.1, "C": 1.854, "D": 1.212}
{"smiles": "CCS(=O)(=O)N1CCN(C(=O)NC(C)C)CC2(CC(=O)N(C)C2)C1", "stereo": "stereo unspecified", "A": 2.304, "B": -9.497, "C": -4.689, "D": 1.149}

Measurements from “University of Dundee, Small-Polar-MMV Screening Library” (2021), ChEMBL document CHEMBL3988442.